Measured values published in patent publication US7964369.
Changes are numbered by the printed parent chain. In names and notes the source's numbering stands. No constants are given. Whether binding was seen depends on the method and setting. In cells and extracts the contact can be indirect. Some results given as binding are weak or reduced against the parent protein; the word gives no strength. Tags and fused reporters may be left off the sequences shown.

Protein sequences, listed by entry. Tags and fused reporters are not part of them.
UniProt Q96FW1: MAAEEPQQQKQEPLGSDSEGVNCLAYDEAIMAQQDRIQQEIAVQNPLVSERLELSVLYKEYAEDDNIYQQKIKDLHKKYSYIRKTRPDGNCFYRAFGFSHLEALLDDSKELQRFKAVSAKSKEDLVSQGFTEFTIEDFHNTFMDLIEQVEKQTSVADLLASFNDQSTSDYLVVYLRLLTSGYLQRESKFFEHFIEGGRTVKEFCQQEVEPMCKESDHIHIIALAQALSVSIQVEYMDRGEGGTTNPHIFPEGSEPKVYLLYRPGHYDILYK

Legend:
DOG-His (human) [1] = target: DOG-His (human) (UniProt Q96FW1); assay: co-immunoprecipitation from 293 cells, anti-HA IP
DOG-His (human) [2] = target: DOG-His (human) (UniProt Q96FW1); assay: co-immunoprecipitation, summed up in the discussion of Example 1
DOG-His (human) [3] = target: DOG-His (human) (UniProt Q96FW1); assay: two-hybrid and co-immunoprecipitation, summed up in the discussion of Example 1
DOG-His (human) [4] = target: DOG-His (human) (UniProt Q96FW1); assay: co-precipitation in co-transfected HEK 293 cells after bacterial two-hybrid
DOG-His (human) [5] = target: DOG-His (human) (UniProt Q96FW1); assay: co-immunoprecipitation from 293 cells with an antibody to tagged USP8
DOG-His (human) [6] = target: DOG-His (human) (UniProt Q96FW1); assay: co-immunoprecipitation from 293 cells (FIG. 7 legend)

Measured: binding

B1: catalytically inactive USP8 (C748A), HA-tagged (enzyme, mouse, UniProt Q80U87 1-1080, looked up, not shown: small tags and cut ends)
chain: MPAVASVPKELYLSSSLKDLNKKTEVKPEKTSTKNYIHSAQKIFKTAEECRLDRDEERAYVLYMKYVAVYNLIKKRPDFKQQQDYYLSILGPANIKKAIEEAERLSESLKLRYEEAEVRKQLEEKDRREEEQLQQQKRQEMGREDSGAAAKRSVENLLDSKTKTQRINGEKSEGAAAAERGAITAKELYTMMMDKNTSLIIMDARKIQDYQHSCILDSLSVPEEAISPGVTASWIEANLSDDSKDTWKKRGSVDYVVLLDWFSSAKDLLLGTTLRSLKDALFKWESKTVLRHEPLVLEGGYENWLLCYPQFTTNAKVTPPPRSRAEEVSVSLDFTYPSLEEPVPSKLPTQMPPPPIETNEKALLVTDQDEKLRLSTQPALAGPGAAPRAEASPIIQPAPATKSVPQVDRTKKPSVKLPEDHRIKSENTDQSGRVLSDRSTKPVFPSPTTMLTDEEKARIHQETALLMEKNKQEKELWDKQQKEQKEKLRREEQERKAGKTQDADERDSTENQHKAKDGQEKKDSKQTKTEDRELSADGAQEATGTQRQSKSEHEASDAKVPVEGKRCPTSEAQKRPADVSPASVSGELNAGKAQREPLTRARSEEMGRIVPGLPLGWAKFLDPITGTFRYYHSPTNTVHMYPPEMAPSSAPPSTPPTHKVKPQVPAERDREPSKLKRSYSSPDITQALQEEEKRRPAVTPMVNRENKPPCYPKAEISRLSASQIRNLNPVFGGSGPALTGLRNLGNTAYMNSILQCLCNAPHLADYFNRNCYQDDINRSNLLGHKGEVAEEFGIIMKALWTGQYRYISPKDFKVTIGKINDQFAGSSQQDSQELLLFLMDGLHEDLNKADNRKRHKEENNEHLDDLQAAEHAWQKHKQLNESIIVALFQGQFKSTVQCLTCRRRSRTFEAFMYLSLPLASTSKCTLQDCLRLFSKEEKLTDNNRFYCSHCRARRDSLKKIEIWKLPPVLLVHLKRFSYDGRWKQKLQTSVDFPLENLDLSQYVIGPKNSLKKYNLFSVSNHYGGLDGGHYTAYCKNAARQRWFKFDDHEVSDISVSSVRSSAAYILFYTSLGPRITDVAT
binds: DOG-His (human) [1] | DOG-His (human) [2]

B2: HA-USP8 (enzyme, mouse, UniProt Q80U87 1-1080, looked up, not shown: small tags and cut ends)
chain: B1 chain with A748C
binds: DOG-His (human) [3] | DOG-His (human) [4] | DOG-His (human) [5] | DOG-His (human) [6]
